Measured values reported in paper doi:10.1101/604223.
Results are given in words; binding and its absence hold for the method and conditions named. Binding seen in cells or lysates may run through a third protein. Some binding calls cover weakened binding; strength is not graded here.

Protein sequences, listed by entry. Tags and fused reporters are not part of them.
UniProt Q92674: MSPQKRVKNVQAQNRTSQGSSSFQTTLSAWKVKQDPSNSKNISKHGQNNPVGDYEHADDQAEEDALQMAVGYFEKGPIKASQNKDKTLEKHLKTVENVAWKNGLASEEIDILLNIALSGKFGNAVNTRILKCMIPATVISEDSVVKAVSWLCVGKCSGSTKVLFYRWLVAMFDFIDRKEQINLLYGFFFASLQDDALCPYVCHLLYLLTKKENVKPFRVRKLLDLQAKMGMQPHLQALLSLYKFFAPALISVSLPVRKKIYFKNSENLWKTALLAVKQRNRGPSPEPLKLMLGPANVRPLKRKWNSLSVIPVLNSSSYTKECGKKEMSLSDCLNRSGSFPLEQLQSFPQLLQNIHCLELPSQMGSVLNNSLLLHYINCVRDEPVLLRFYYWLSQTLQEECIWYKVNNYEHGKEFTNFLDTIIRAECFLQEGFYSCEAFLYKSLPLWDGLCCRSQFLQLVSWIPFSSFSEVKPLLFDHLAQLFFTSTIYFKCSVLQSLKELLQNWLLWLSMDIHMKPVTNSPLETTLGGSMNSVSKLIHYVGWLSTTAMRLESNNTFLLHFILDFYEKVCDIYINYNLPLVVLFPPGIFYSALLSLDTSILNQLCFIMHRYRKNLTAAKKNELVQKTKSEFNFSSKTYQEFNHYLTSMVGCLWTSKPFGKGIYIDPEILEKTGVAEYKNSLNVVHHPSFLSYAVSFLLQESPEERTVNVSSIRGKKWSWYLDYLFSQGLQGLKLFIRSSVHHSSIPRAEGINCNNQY
UniProt Q5EE01: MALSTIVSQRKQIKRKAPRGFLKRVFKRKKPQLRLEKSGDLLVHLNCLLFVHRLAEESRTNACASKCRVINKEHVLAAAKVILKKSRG

B1: CENP-B (protein, UniProt P07199 1-599)
chain: MGPKRRQLTFREKSRIIQEVEENPDLRKGEIARRFNIPPSTLSTILKNKRAILASERKYGVASTCRKTNKLSPYDKLEGLLIAWFQQIRAAGLPVKGIILKEKALRIAEELGMDDFTASNGWLDRFRRRHGVVSCSGVARARARNAAPRTPAAPASPAAVPSEGSGGSTTGWRAREEQPPSVAEGYASQDVFSATETSLWYDFLPDQAAGLCGGDGRPRQATQRLSVLLCANADGSEKLPPLVAGKSAKPRAGQAGLPCDYTANSKGGVTTQALAKYLKALDTRMAAESRRVLLLAGRLAAQSLDTSGLRHVQLAFFPPGTVHPLERGVVQQVKGHYRQAMLLKAMAALEGQDPSGLQLGLTEALHFVAAAWQAVEPSDIAACFREAGFGGGPNATITTSLKSEGEEEEEEEEEEEEEEGEGEEEEEEGEEEEEEGGEGEELGEEEEVEEEGDVDSDEEEEEDEESSSEGLEAEDWAQGVVEAGGSFGAYGAQEEAQCPTLHFLEGGEDSDSDSEEEDDEEEDDEDEDDDDDEEDGDEVPVPSFGEAMAYFAMVKRYLTSFPIDDRVQSHILHLEHDLVHVTRKNHARQAGVRGLGHQS

molecular target: CENP-C (human (endogenous in HeLa)) (UniProt Q03188); experiment: co-IP

| Molecule | binding |
| --- | --- |
| CENP-I (from UniProt Q92674 1-756) | binds |
| HEC1/NDC80 (from UniProt O14777 1-642) | binds |
| CENP-T (from UniProt Q96BT3 1-561) | binds |
| CENP-W (from UniProt Q5EE01 1-88) | binds |
| B1 | binds |
